These are literature values, as cited in US20130216579A1, “METHODS AND COMPOSTITIONS FOR GENE EDITING OF A PATHOGEN” (priority 2012, published 2013).

For the data set, the system named is P. falciparum. To be noted: CQ resistant parasites; read-out: IC50 values that typify in vitro CQ resistance; cited from earlier work.

On to `CCN(CC)CCCC(C)Nc1ccnc2cc(Cl)ccc12` (stereo not shown) [CQ, chloroquine], for which the IC50 was 80 to 100 nM.

For orientation: IC50 means the concentration at which inhibition is half-maximal.
